Test results as given in PubChem BioAssay AID222 (DTP/NCI, 2004).
The list is a part of this screen's results and no random one: it gathers tests that were run many times, whatever their T/C, doses with no T/C, and many T/C values between a quarter and a half above the control. Other doses and runs of a compound stand elsewhere. T/C is the treated group as % of the vehicle group. Some doses have a count of surviving animals in place of a T/C: the source holds a T/C of zero for them, seemingly a mark for toxic or unscored doses. Some doses without a T/C left all or most animals alive at the check, yet need not have been tolerated: the source hardly ever lists a survival T/C far under the control, and the zero likely stands for such cases as well. Counts of survivors are from the toxicity check (mostly the fifth day) where no day follows; animals may have died later. Schedules are NCI's codes, read here as Q, the interval in days (D) or hours (H), X, the number of doses. Some doses were run more than once; their values stand side by side, smallest first. Some schedules carry Z or #; the key to these is not given. For survival time, the PubChem record calls one and a half times the control and up active, and a quarter to a half above the control has no call in these data; cut-offs in other NCI protocols can differ. Some T/C values are followed by the survivors on the day toxicity was checked, most often the fifth; without a count, all were alive then. Signs of the kind (2×) stand for listed records that agree.

System: C57BL/6 mice, intracerebral ependymoblastoma, median survival T/C
Assay: NCI In Vivo Anticancer Drug Screen. Data for tumor model Ependymoblastoma (intracerebral) in C57BL/6 mice
Details: T/C endpoint: median survival time, higher T/C = longer survival
Procedure: The antitumor activity of compounds was measured in mice bearing transplantable tumors. Survival or tumor size were measured and the results are expressed as the measurement made in the treated group (T) divided by the measurement made in the vehicle treated control group (C). The tumor model used in this assay is Ependymoblastoma (intracerebral) in C57BL/6 mice

[1] = dose: 256.0 mg/kg/injection, schedule: Q01DX001 (ip), vehicle: other
[2] = dose: 256.0 mg/kg/injection, schedule: Q## X006 (ip), vehicle: other
[3] = dose: 512.0 mg/kg/injection, schedule: Q01DX001 (ip), vehicle: other
[4] = dose: 640.0 mg/kg/injection, schedule: Q01DX005 (ip), vehicle: saline
[5] = dose: 1280.0 mg/kg/injection, schedule: Q01DX005 (ip), vehicle: saline

## CN(N=O)C(=O)N[C@@H](C=O)[C@@H](O)[C@H](O)[C@H](O)CO
dose: 32.0 mg/kg/injection, schedule: Q01DX001 (ip), vehicle: saline
  T/C: 94, 96 [4 of 10 alive], 100, 109, 114 % of control [9 of 10 alive]
dose: 64.0 mg/kg/injection, schedule: Q01DX001 (ip), vehicle: other
  T/C: 100, 106, 110 [7 of 10 alive], 112 % of control
dose: 64.0 mg/kg/injection, schedule: Q01DX001 (ip), vehicle: saline
  T/C: 97 [4 of 9 alive], 103, 105, 114 [7 of 10 alive], 115 % of control
dose: 64.0 mg/kg/injection, schedule: Q01DX001 (oral), vehicle: saline
  T/C: 94 [3 of 9 alive], 97, 98, 99, 99 % of control [6 of 10 alive]
dose: 64.0 mg/kg/injection, schedule: Q01DX005 (ip), vehicle: saline
  T/C: 132 % of control
dose: 64.0 mg/kg/injection, schedule: Q## X006 (ip), vehicle: other
  T/C: 129 % of control
dose: 115.8 mg/kg/injection, schedule: Q## X006 (ip), vehicle: saline
  T/C: 135 % of control
dose: 128.0 mg/kg/injection, schedule: Q01DX001 (ip), vehicle: other
  T/C: 98 [6 of 10 alive], 108 (2×), 123 % of control
dose: 128.0 mg/kg/injection, schedule: Q01DX001 (ip), vehicle: saline
  T/C: 104 [5 of 10 alive], 105, 119, 120 [9 of 10 alive], 133 % of control
dose: 128.0 mg/kg/injection, schedule: Q01DX001 (oral), vehicle: saline
  T/C: 91 [1 of 8 alive], 100 [9 of 10 alive] (2×), 102, 108 % of control
dose: 128.0 mg/kg/injection, schedule: Q01DX005 (ip), vehicle: other
  survivor count: 9 of 10
dose: 128.0 mg/kg/injection, schedule: Q01DX005 (ip), vehicle: saline
  survivor count: 9 of 10
dose: 128.0 mg/kg/injection, schedule: Q01DX005 (oral), vehicle: other
  survivor count: 10 of 10
dose: 128.0 mg/kg/injection, schedule: Q## X006 (ip), vehicle: other
  T/C: 139 % of control
[1]
  T/C: 89, 101, 114 % of control [7 of 10 alive]
  survivor count: 7 of 10
dose: 256.0 mg/kg/injection, schedule: Q01DX001 (ip), vehicle: saline
  T/C: 100 [6 of 8 alive], 102, 104 [6 of 10 alive], 109, 113 % of control [9 of 10 alive]
dose: 256.0 mg/kg/injection, schedule: Q01DX001 (oral), vehicle: saline
  T/C: 96, 103 [8 of 10 alive], 104 [4 of 8 alive], 105, 109 % of control
dose: 256.0 mg/kg/injection, schedule: Q01DX005 (ip), vehicle: other
  survivor count: 0 of 10
dose: 256.0 mg/kg/injection, schedule: Q01DX005 (ip), vehicle: saline
  survivor count: 0 of 10
[2]
  T/C: 127 % of control
  survivor count: 1 of 10
dose: 256.0 mg/kg/injection, schedule: Q#A X002 (ip), vehicle: saline
  survivor count: 0 of 10
[3]
  T/C: 106 and 109 % of control [5 of 10 alive]
  survivor count: 5 of 10 and 7 of 10
dose: 512.0 mg/kg/injection, schedule: Q01DX001 (ip), vehicle: saline
  survivor count: 1 of 10, 2 of 10, 6 of 10
dose: 512.0 mg/kg/injection, schedule: Q01DX001 (oral), vehicle: saline
  T/C: 91 [9 of 10 alive], 96 [4 of 10 alive], 98 [9 of 10 alive], 100, 112 % of control [8 of 10 alive]
dose: 512.0 mg/kg/injection, schedule: Q01DX005 (oral), vehicle: other
  survivor count: 10 of 10
dose: 512.0 mg/kg/injection, schedule: Q## X006 (ip), vehicle: other
  survivor count: 0 of 10 and 10 of 10
dose: 1024.0 mg/kg/injection, schedule: Q01DX001 (ip), vehicle: other
  survivor count: 0 of 10 and 1 of 10
dose: 1024.0 mg/kg/injection, schedule: Q01DX001 (oral), vehicle: saline
  T/C: 96 [4 of 10 alive], 104 (2×), 113, 116 % of control [8 of 10 alive]
dose: 1024.0 mg/kg/injection, schedule: Q## X006 (ip), vehicle: other
  survivor count: 1 of 10 and 3 of 10

## CN(CO)c1nc(N(C)CO)nc(N(C)CO)n1
dose: 50.0 mg/kg/injection, schedule: Q01DX005 (ip), vehicle: saline with Tween-80
  survivor count: 5 of 10
dose: 100.0 mg/kg/injection, schedule: Q01DX005 (ip), vehicle: saline with Tween-80
  survivor count: 5 of 10
dose: 200.0 mg/kg/injection, schedule: Q01DX005 (ip), vehicle: saline with Tween-80
  survivor count: 6 of 10
dose: 400.0 mg/kg/injection, schedule: Q01DX005 (ip), vehicle: saline with Tween-80
  survivor count: 3 of 10
dose: 800.0 mg/kg/injection, schedule: Q01DX005 (ip), vehicle: saline with Tween-80
  survivor count: 0 of 10

## OC(CCl)CN1CC[N+]2(CC1)CC[N+]1(CCN(CC(O)CCl)CC1)CC2 (stereo not drawn)
dose: 80.0 mg/kg/injection, schedule: Q01DX005 (ip), vehicle: saline
  T/C: 100, 101 (2×), 116 % of control
dose: 160.0 mg/kg/injection, schedule: Q01DX005 (ip), vehicle: saline
  T/C: 97, 105, 114, 119 % of control
dose: 320.0 mg/kg/injection, schedule: Q01DX005 (ip), vehicle: saline
  T/C: 90, 100, 118 [9 of 10 alive], 139 % of control
[4]
  T/C: 105 % of control
  survivor count: 0 of 10, 4 of 10, 9 of 10
[5]
  T/C: 135 % of control
  survivor count: 1 of 10

## C1OC1CN1CCN(CC2CO2)CC1 (stereo not drawn)
dose: 12.5 mg/kg/injection, schedule: Q01DX005 (ip), vehicle: saline
  survivor count: 10 of 10
dose: 50.0 mg/kg/injection, schedule: Q01DX005 (ip), vehicle: saline
  survivor count: 9 of 10
dose: 100.0 mg/kg/injection, schedule: Q01DX005 (ip), vehicle: saline
  survivor count: 10 of 10

## Nc1nc(=S)c2ncn(C3OC(CO)CC3O)c2[nH]1 (stereo not drawn)
dose: 20.0 mg/kg/injection, schedule: Q01DX005 (ip), vehicle: saline
  survivor count: 9 of 10
dose: 40.0 mg/kg/injection, schedule: Q01DX005 (ip), vehicle: saline
  survivor count: 10 of 10

## CN(N=O)C(N)=O
dose: 10.0 mg/kg/injection, schedule: Q01DX001 (ip), vehicle: Klucel (hydroxypropylcellulose) (HPC)
  T/C: 139 % of control
dose: 20.0 mg/kg/injection, schedule: Q01DX001 (ip), vehicle: Klucel (hydroxypropylcellulose) (HPC)
  T/C: 134 % of control
dose: 40.0 mg/kg/injection, schedule: Q01DX001 (ip), vehicle: Klucel (hydroxypropylcellulose) (HPC)
  T/C: 132 % of control
dose: 160.0 mg/kg/injection, schedule: Q01DX001 (ip), vehicle: Klucel (hydroxypropylcellulose) (HPC)
  survivor count: 8 of 10

## COc1ccc(CC2C(=O)NC(C)C(=O)N(C)C3C(=O)N(C)C(Cc4ccc(O)c(c4)Oc4ccc(cc4)C3O)C(=O)NC(C)C(=O)NC(C)C(=O)N2C)cc1 (stereo not drawn)
dose: 2.0 mg/kg/injection, schedule: Q01DX005 (ip), vehicle: saline
  survivor count: 8 of 10

## Cc1c2ccncc2c(C)c2c1[nH]c1ccccc12
dose: 256.0 mg/kg/injection, schedule: Q01DX001 (ip), vehicle: Klucel (hydroxypropylcellulose) (HPC)
  survivor count: 9 of 10
dose: 512.0 mg/kg/injection, schedule: Q01DX001 (ip), vehicle: Klucel (hydroxypropylcellulose) (HPC)
  survivor count: 9 of 10
dose: 768.0 mg/kg/injection, schedule: Q01DX001 (ip), vehicle: Klucel (hydroxypropylcellulose) (HPC)
  survivor count: 9 of 10

## O=C(CCCN1CCC(O)(c2cccc(C(F)(F)F)c2)CC1)c1ccc(F)cc1
dose: 100.0 mg/kg/injection, schedule: Q04DX003 (ip), vehicle: Klucel (hydroxypropylcellulose) (HPC)
  survivor count: 1 of 10
dose: 200.0 mg/kg/injection, schedule: Q04DX003 (ip), vehicle: Klucel (hydroxypropylcellulose) (HPC)
  survivor count: 0 of 10

## COC(=O)[C@@]12OC[C@]34[C@H]([C@@H](O)[C@@H]1O)[C@@]1(C)CC(=O)C(O)=C(C)[C@@H]1C[C@H]3OC(=O)[C@H](OC(=O)/C=C(\C)C(C)C)[C@@H]24
dose: 1.0 mg/kg/injection, schedule: Q01DX005 (ip), vehicle: Klucel (hydroxypropylcellulose) (HPC)
  survivor count: 7 of 10
dose: 2.0 mg/kg/injection, schedule: Q01DX005 (ip), vehicle: Klucel (hydroxypropylcellulose) (HPC)
  survivor count: 0 of 10 and 5 of 10
dose: 2000.0 micrograms/kg/injection, schedule: Q01DX005 (ip), vehicle: saline + alcohol
  survivor count: 7 of 10

## C[n+]1ccc(Nc2ccc(NC(=O)c3ccc(Nc4cc[n+](C)c5ccc(N)cc45)cc3)cc2)cc1
dose: 16.0 mg/kg/injection, schedule: Q01DX005 (ip), vehicle: Klucel (hydroxypropylcellulose) (HPC)
  survivor count: 9 of 10
